{"source": "PubChem BioAssay AID540256", "about": "(National Center for Advancing Translational Sciences (NCATS), 2011)", "note": "Out of some 300,000 compounds screened, about 3,700 (1.2%) were called active. The shares of active, inactive and inconclusive entries below differ from those in the screen. Calls follow the shape of the full dose curve; tested in HEK293 cells. Where the call is inconclusive, the potency comes from a doubtful curve fit. Potency is read from the fitted curve at half-maximal effect."}
{"test": "qHTS for Inhibitors of binding or entry into cells for Lassa Virus; also: nearly all actives have a fitted effect of over 50% in size", "conditions": "Lassa virus pseudotype entry inhibition, cell reporter; series mostly up to 37.9 µM"}
{"smiles": "Fc1ccc(-c2noc3ncnc(NCc4cccc(Cl)c4)c23)cc1", "Potency": "inactive"}
{"smiles": "CCOC(=O)N1CCN(c2nc(C(F)(F)F)nc3c(C)cc(C)cc23)CC1", "Potency": "inconclusive: 29.1 µM [inhibitor, single point]"}
{"smiles": "CCN(CC)c1ccc(C2C(C(N)=O)=C(C)Nc3nc(SCc4ccccc4)nn32)cc1", "note": "(stereo not drawn)", "Potency": "inconclusive: 4.47 µM [inhibitor, partial curve, poor fit]"}
{"smiles": "CCOC(=O)c1c(NC(=O)CN2CCN(c3ccc(Cl)cc3)CC2)sc(C)c1C", "Potency": "inconclusive: 16.4 µM [inhibitor, partial curve, poor fit]"}
{"smiles": "COC(=O)CNC(=O)c1ccc(OC2CCN(C(=O)C3CC3)CC2)cc1", "Potency": "inactive"}
{"smiles": "O=C(CN1C(=O)S/C(=C\\C=C\\c2ccccc2)C1=O)Nc1cccc(O)c1", "Potency": "inactive"}
{"smiles": "CC(=O)N1N=C(c2cccc([N+](=O)[O-])c2)OC1(C)CC(=O)Nc1ccccc1", "note": "(stereo not drawn)", "Potency": "inconclusive: 8.91 µM [inhibitor, partial curve, poor fit]"}
{"smiles": "COc1ccccc1C1c2ccc3ccccc3c2Oc2ncn(CCCO)c(=N)c21", "note": "(stereo not drawn)", "Potency": "inconclusive: 22.4 µM [inhibitor, single point]"}
{"smiles": "COc1ccc(C(=O)Nc2cc(C(C)=O)c(C)oc2=O)cc1", "Potency": "inconclusive: 1.26 µM [inhibitor, partial curve, poor fit]"}
{"smiles": "CC(C)(C)NC(=O)CCN(/N=C/c1ccncc1)C1=NS(=O)(=O)c2ccccc21", "Potency": "inactive"}
{"smiles": "Cn1c(=O)c2c(nc(CN3CCN(C(=O)c4ccco4)CC3)n2Cc2cccc(Cl)c2)n(C)c1=O", "Potency": "inactive"}
{"smiles": "CC1(C)OC(=O)C(=CNCC(=O)NCC(=O)O)C(=O)O1", "Potency": "inactive"}
{"smiles": "CCCN(CCC)CCCNC(=O)c1nn(C)c2c1CS(=O)(=O)c1ccccc1-2", "Potency": "inconclusive: 0.501 µM [activator, full curve, poor fit]"}
{"smiles": "CCOC(=O)c1c(NC(=O)CN2C(=O)NC(C)(c3ccccc3)C2=O)sc(C)c1C", "note": "(stereo not drawn)", "Potency": "inconclusive: 16.4 µM [inhibitor, single point]"}
{"smiles": "CC(C)c1ccc(-c2noc(SCC(=O)N3CCCCC3)n2)cc1", "Potency": "inconclusive: 5.62 µM [activator, partial curve]"}
{"smiles": "CCOc1ccccc1CNC(=O)c1ccc(Cn2c(=O)c3cccn3c3cccnc32)cc1", "Potency": "inactive"}
{"smiles": "O=C(/C=C/c1ccccc1)Nc1cc(-c2nc3ccccc3o2)ccc1Cl", "Potency": "inactive"}
{"smiles": "FC(F)(F)c1cccc(N2CCN(Cc3nnc(-c4ccccc4)o3)CC2)c1", "Potency": "inconclusive: 6.31 µM [inhibitor, single point]"}
{"smiles": "C[C@@H]1C=CCCO[C@]12C(=O)N(Cc1ccc(F)cc1)c1ccccc12", "Potency": "inconclusive: 1.5 µM [inhibitor, partial curve]"}
{"smiles": "CCOc1cc(C2CC(=O)Nc3c2c(C)nn3-c2nc(C)cc(C)n2)ccc1O", "note": "(stereo not drawn)", "Potency": "inactive"}
{"smiles": "C(#Cc1ccccc1)C[N+]1(CC#Cc2ccccc2)CCCCC1", "Potency": "inconclusive: 15.8 µM [inhibitor, single point]"}
{"smiles": "O=C(NCc1ccc2c(c1)OCO2)c1ccccc1", "Potency": "inconclusive: 5.62 µM [activator, single point]"}
{"smiles": "COc1ccc(C2C3=C(CC(C)(C)CC3=O)Oc3ncn(Cc4ccccc4)c(=N)c32)cc1", "note": "(stereo not drawn)", "Potency": "inconclusive: 6.51 µM [inhibitor, full curve, poor fit]"}
{"smiles": "CCCC(=O)c1ccc(N2CCCCC2)c(F)c1", "Potency": "inactive"}
{"smiles": "Nc1c(Cl)cc(C(=O)NC2CC2)cc1Cl", "Potency": "inactive"}
{"smiles": "Cc1ccc(C(=O)CC(=O)c2ccccc2C)c(O)c1", "Potency": "inconclusive: 0.355 µM [inhibitor, partial curve, poor fit]"}
{"smiles": "Fc1ccc(-c2nc3c(Cl)cc(C(F)(F)F)cn3c2Cl)cc1", "Potency": "inconclusive: 6.51 µM [activator, single point]"}
{"smiles": "O=C(NC1CCCCC1)C(c1cccnc1)N(CCc1ccccc1)C(=O)Cc1cccs1", "note": "(stereo not drawn)", "Potency": "inactive"}
{"smiles": "CC(OC(=O)c1ccc(S(=O)(=O)N(C)c2ccccc2)cc1)C(=O)NCCC1=CCCCC1", "note": "(stereo not drawn)", "Potency": "inconclusive: 0.631 µM [inhibitor, partial curve, poor fit]"}
{"smiles": "O=C(Nc1ccc(N2CCN(C(=O)c3ccco3)CC2)cc1)c1ccccc1", "Potency": "inactive"}
{"smiles": "COc1ccc(CNC(=O)CCS(=O)(=O)c2ccc3c(c2)CC(C)N3C(=O)C2CC2)cc1", "note": "(stereo not drawn)", "Potency": "inconclusive: 14.1 µM [inhibitor, partial curve, poor fit]"}
{"smiles": "COc1ccc(N2CCN(C(=O)c3ccc(N(C)S(=O)(=O)c4ccc(C)cc4)cc3)CC2)cc1", "Potency": "inconclusive: 35.5 µM [inhibitor, single point]"}
{"smiles": "O=C(CSc1nccn1C1CCCC1)Nc1ccccc1", "Potency": "inconclusive: 2.82 µM [activator, full curve]"}
{"smiles": "CCOC(=O)CSc1nc2ccccc2n2c(C)nnc12", "Potency": "inconclusive: 35.5 µM [inhibitor, single point]"}
{"smiles": "O=C(Nc1ccccc1N1CCN(C(=O)c2ccc(Cl)cc2)CC1)c1ccc([N+](=O)[O-])o1", "Potency": "inconclusive: 10 µM [inhibitor, partial curve, poor fit]"}
{"smiles": "CC(=O)N(CCC(c1ccco1)C(C)C)Cc1ccc(Cl)cc1", "note": "(stereo not drawn)", "Potency": "active: 10 µM"}
{"smiles": "Cn1c(=O)c2ncn(CC(=O)Nc3cccc(-c4nc5ccccc5s4)c3)c2n(C)c1=O", "Potency": "inconclusive: 29.1 µM [inhibitor, single point]"}
{"smiles": "COc1ccccc1CC(=O)Nc1sc2c(c1C(N)=O)CCCC2", "Potency": "inconclusive: 20 µM [activator, single point]"}
{"smiles": "Cc1cc(C)n(C(=O)C(C(=O)c2ccccc2)C(C)C)n1", "note": "(stereo not drawn)", "Potency": "inconclusive: 1.26 µM [inhibitor, single point]"}
{"smiles": "CCN(CC(=O)Nc1ccc(NC(C)=O)cc1)C(=O)CSc1nnc(-c2ccco2)n1CC", "Potency": "inconclusive: 3.55 µM [inhibitor, single point]"}
{"smiles": "O=C(NC1(O)C(=O)c2ccccc2C1=O)c1ccccc1", "Potency": "inconclusive: 35.5 µM [inhibitor, single point]"}
{"smiles": "COCCn1c(C)cc(C(=O)COC(=O)CCS(=O)(=O)c2ccc(C)cc2)c1C", "Potency": "inactive"}
{"smiles": "C/C(=C\\c1ccccc1)C(=O)Nc1cc(C)on1", "Potency": "inconclusive: 6.31 µM [activator, single point]"}
